# Percent effect of library compounds

Protein sequences, listed by entry. Tags and fused reporters are not part of them. Residues count along the entry.
UniProt Q4DA54, 1-478: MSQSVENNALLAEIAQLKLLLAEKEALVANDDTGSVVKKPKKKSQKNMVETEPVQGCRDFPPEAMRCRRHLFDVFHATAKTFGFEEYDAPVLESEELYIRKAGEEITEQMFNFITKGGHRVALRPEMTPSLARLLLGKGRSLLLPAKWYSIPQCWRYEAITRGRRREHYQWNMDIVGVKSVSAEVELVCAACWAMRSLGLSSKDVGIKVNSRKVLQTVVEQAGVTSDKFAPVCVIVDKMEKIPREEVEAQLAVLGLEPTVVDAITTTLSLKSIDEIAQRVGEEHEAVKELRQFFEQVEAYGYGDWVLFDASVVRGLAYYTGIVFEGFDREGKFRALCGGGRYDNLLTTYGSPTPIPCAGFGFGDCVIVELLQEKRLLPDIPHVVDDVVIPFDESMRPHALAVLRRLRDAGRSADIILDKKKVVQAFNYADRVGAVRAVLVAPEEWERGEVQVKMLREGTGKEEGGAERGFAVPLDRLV

Source: ChEMBL document CHEMBL3988442, “University of Dundee, Small-Polar-MMV Screening Library” (2021).

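Enzyme assay of histidyl-tRNA synthetase; the read-out is not stated. Target: Histidine-tRNA ligase, Trypanosoma cruzi CL Brener (UniProt Q4DA54). Compounds at 30 µM. Direction is inferred from retests: higher values go with stronger inhibition. Size under these conditions: about 69,000 compounds, about 31 of them at 50% or above in at least one test.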

The filed quantity is “Percent Effect” (%). The controls that fix the scale are not given in the record; negative values are as filed. This is an unselected part of the compounds tested.

| SMILES | percent effect |
|---|---|
| `Cc1nnc2n1CCN(C(=O)CN1C(=O)C(C)Oc3ccccc31)C2` (stereo not given) | 1.571% |
| `Cc1nc(C)n(CC2CCCN2Cc2nc3ccccc3n2C)n1` (stereo not given) | -1.887% |
| `Cc1ccnc(N2CCN(C[C@]3(O)CCCN4CCCC[C@@H]43)CC2)c1` | 1.02% |
| `O=C(c1ccco1)N1CC[C@@H]2O[C@@H](COCC3CCOCC3)CC[C@@H]21` | 2.941% |
| `CC(C)(C)Cc1noc2ncc(C(=O)N3CCSCC3)cc12` | 4.545% |
| `Cn1cc(C(=O)CC2CCCN2C(=O)c2ccc(Cl)cn2)cn1` (stereo not given) | -3.012% |
| `O=C(COc1ccccc1)N1CCC[C@]2(C[C@H](OCC3CC3)CO2)C1` | 1.087% |
| `Cc1nc(N(C)Cc2cccc(O)c2)nc2cc(S(C)(=O)=O)ccc12` | 13.16% |
| `O=C(c1ccc(F)cc1)N1CCN2C[C@H](Oc3cccnc3)C[C@H]2C1` | 7.463% |
| `COc1ccc2nc(C)c(C(=O)NCCN3CCS(=O)(=O)CC3)cc2c1` | 0.578% |
| `Cc1ccc(N(C)[C@@H]2CC[C@@H]3CN(C(=O)C4CCOCC4)C[C@@H]32)nn1` | 11.65% |
| `O=C(Nc1ccc(CCN2CCOCC2)cc1)C1CCCC1` | 3.207% |
| `O=C(c1ccc[nH]1)N1CCC2(CCCN2Cc2cccnc2)CC1` | 6.897% |
| `O=C(NCCn1ccnc1)NCc1ccc(N2CCCCCC2)nc1` | -1.01% |
| `CCN(CC(F)(F)F)C(=O)C1CCCN(Cc2ccccn2)C1` (stereo not given) | 0% |
| `Cn1cc(CN2C[C@@H]3COC[C@H](C(=O)Nc4cccnc4)[C@@H]3C2)cn1` | -1.22% |
| `CCCc1cnc(C)nc1NCCc1nc(C)cc(=O)[nH]1` | 0% |
| `CCOc1cc(C(=O)N2CC=C(c3ccc(O)cc3)CC2)ccn1` | 5.155% |
| `CN1CCN(C(=O)c2nnc3ccc(Cl)cc3n2)CC1` | 6.637% |
| `CCN(CCn1cccn1)Cc1nc(-c2ccc(F)cc2)oc1C` | 4.233% |
| `c1csc(CN2CCC3(CC2)CCN(CC2CC2)CC3)n1` | -2.299% |
| `Cn1cc(-c2cnc(N3CCOCC3)nc2)cc1C(=O)NC1CC1` | 2.941% |
| `CC(=O)N[C@@H]1CN(C(=O)c2cc3ccccc3[nH]2)C[C@H]1c1ccc(C)o1` | 10.13% |
| `CN(CCn1ccnc1-c1ccccn1)S(C)(=O)=O` | -1.031% |
| `COCC(O)CN1CCC(=O)N(Cc2ccco2)Cc2ccccc21` (stereo not given) | -1.124% |
| `CCc1nc(C2CCCN2C(=O)c2ccc3c(c2)[nH]c(=O)n3C)no1` (stereo not given) | 3.39% |
| `O=C(NC1CC(=O)N(C2Cc3ccccc3C2)C1)c1cc[n+]([O-])cc1` (stereo not given) | 6.818% |
| `NCCC(=O)Nc1ccc(-c2ccccc2)cc1` | 5.682% |
| `Cc1nc(C)n(C2CCCN(C(=O)c3ccc(NC4CC4)nc3)C2)n1` (stereo not given) | 1.916% |
| `COc1ccc(C)cc1NC(=O)c1c(C)cn(C)c1CC(=O)O` | 4% |
| `CCC(=O)N1CCN(c2cc(N(C)C)cnn2)CC1` | 2.062% |
| `COc1ccccc1NCC(=O)NCc1cc[nH]n1` | -1.316% |
| `Cc1cc(CNC(=O)NCc2cccs2)no1` | 4.023% |
| `c1ccc(COC2CCN(c3cncc(-n4cccn4)n3)CC2)cc1` | 3.743% |
| `Cc1nc(NCc2scnc2-c2ccccc2)cc(C2CCNCC2)n1` | 6.25% |
| `CC(NC(=O)c1ccoc1)C(=O)N(C)Cc1ccsc1` (stereo not given) | 3.448% |
| `Cc1nc(CN2CCCC(NCc3cccc4ccccc34)C2)no1` (stereo not given) | 8.621% |
| `COc1cccc(CN(Cc2ncc[nH]2)Cc2ccco2)c1` | 5.429% |
| `O=C(c1ccc(COc2ccccc2Cl)o1)N1N=CCC1(O)C(F)(F)F` (stereo not given) | 4.663% |
| `CC(C)n1cc(CN2CCCN(C(=O)C3CCOC3)CC2)cn1` (stereo not given) | 2.326% |
| `Cc1ccc(CN2CCC3(CC2)COCCN3S(C)(=O)=O)o1` | 10% |
| `CC(=O)Nc1nc(C(=O)N2CCCCC2Cn2cc(C)cn2)cs1` (stereo not given) | 2.041% |
| `O=C1CC[C@@H]2[C@@H](CCN2S(=O)(=O)C2CC2)N1CC1CC1` | 1.105% |
| `NC1CCCN(Cc2cccc(C(F)(F)F)c2)C1=O` (stereo not given) | 11.44% |
| `CCN(C)CC(=O)N1CCc2nc(NC)nc(C(=O)N3CCCC3)c2C1` | 6.03% |
| `Cn1cccc1C(O)CNS(=O)(=O)c1ccccc1F` (stereo not given) | 6.186% |
| `c1csc(CCN2CCCC2c2noc(C3CC3)n2)c1` (stereo not given) | 2.041% |
| `CCN(C(C)=O)c1nc(CN2CCCCC2Cn2cncn2)cs1` (stereo not given) | 3.448% |
| `Cc1cnn(CC2CN(CCS(C)(=O)=O)CCO2)c1` (stereo not given) | 6.349% |
| `O=C(O)c1ccc(CNC(=O)C2CCN(C(=O)C3CCC3)CC2)s1` | -0.4292% |
| `CC(C)c1cccc(NC(=O)Cn2c(=O)n(C)c(=O)c3sccc32)c1` | -2.959% |
| `CCOC(=O)N1[C@@H](c2ccco2)[C@@H](C(=O)NC)C[C@]12CCCCNC2=O` | 2.247% |
| `Cc1noc(C)c1CN1CCc2ncnc(-c3ccncc3)c2CC1` | 8.466% |
| `Cc1ccc(CN2CCN(C(=O)c3ccc(Br)o3)CC2)cc1` | 0.4484% |
| `O=C(CNCC1(O)CCCN(Cc2cccc(F)c2F)C1=O)NC1CC1` (stereo not given) | 5.435% |
| `Cc1nnc(NCc2ccc(N3CCC(CO)CC3)cc2)c(C#N)c1C` | 4.865% |
| `O=C(C1CC1)N1CCc2ccccc2C12CCNCC2` | 6.667% |
| `CSC1(CNC(=O)NC(C)Cc2cccc(F)c2)CCOCC1` (stereo not given) | 2.439% |
| `CNC(=O)C(CC(C)C)NC(=O)c1cccc(-c2n[nH]c(C)n2)c1` (stereo not given) | 1.587% |
| `O=C1CC(NS(=O)(=O)c2ccccc2)CN1Cc1ccccc1` (stereo not given) | 1.053% |
| `Cn1cc(C2CCCN2C(=O)CCCOc2ccccc2F)cn1` (stereo not given) | -0.5848% |
| `Cc1ccsc1[C@@H]1CCN(C(=O)CCC(=O)N2CCCCCC2)C[C@H]1O` | 4.065% |
| `Cc1ccc(N2CCCN(C(=O)C3CCCO3)CC2)nn1` (stereo not given) | 5.814% |
| `CCOCC(O)CN1CCN(C(=O)Cc2cccc(Cl)c2)CC1` (stereo not given) | 10.59% |
| `CNC(=O)C1CCN(C(=O)NCc2ccc(C)n2C)CC1` | 5.172% |
| `CN1CCOC(C(=O)Nc2ccc3[nH]nnc3c2)C1` (stereo not given) | 8.38% |
| `Cc1nccn1-c1nccnc1C1CCCN(C)C1` (stereo not given) | 5.085% |
| `Cc1cccc(CC(=O)N2CCCC(N(C)CCCN(C)C)C2)c1` (stereo not given) | 8.04% |
| `COC(=O)c1cccc(CN(C)C(C)c2ccccn2)c1` (stereo not given) | 7.921% |
| `COCc1nc(CNC2CCCC(C)(C)C2)no1` (stereo not given) | 5.6% |
| `c1c[nH]c(-c2cn(CCSc3cnn[nH]3)nn2)n1` | 6.667% |
| `CN(C)C(=O)C1OC2(CCN(c3ncc(F)cn3)CC2)c2ccccc21` (stereo not given) | 4.878% |
| `Cn1ccnc1N1CCN(C(=O)Cc2ccccc2)CC1` | 11% |
| `COCCCN1CC2(CCN(C(=O)Cc3csc(C)n3)CC2)CC1=O` | 5.682% |
| `COCCN(Cc1ccc(F)cc1Cl)C(=O)c1cc(C)no1` | 5.911% |
| `CCCC1c2cccn2CCN1C(=O)Cn1cnc2sc(C)cc2c1=O` (stereo not given) | 1.515% |
| `Cc1nc(N2C[C@@H](CN3CCCN(C)CC3)[C@@H](CO)C2)c2sccc2n1` | 1.63% |
| `Cc1cc(C(=O)N2C[C@@H]3CN(S(C)(=O)=O)CCO[C@@H]3C2)c(C)o1` | 6.452% |
| `COc1ccc(C(C)N(C)Cc2c(C(C)(C)C)[nH]c3ncccc23)cc1` (stereo not given) | 0.2857% |
| `COc1cccc(C(=O)N2CCc3ncnc(C)c3CC2)c1` | 4.959% |
| `CC(Cn1cccn1)NCc1nc(-c2ccccn2)no1` (stereo not given) | 5.202% |
| `CCN(Cc1ccccc1)C(=O)CCN1C[C@@H](C(=O)O)[C@H](C2CC2)C1` | 3.483% |
| `CC(CN1CCC2(CC1)N=C(c1cccnc1)NC2=O)c1ccccc1` (stereo not given) | 4.972% |
| `O=C(Nc1ccc(F)cc1)N1C[C@H]2C[C@H](C(=O)N3CCOCC3)[C@@H](C1)O2` | 2.174% |
| `CCc1nnc(SCC(=O)Nc2cc(C(C)(C)C)nn2C)[nH]1` | -2.956% |
| `CC(c1nc(C2CC2)no1)N1CCc2c(ncn2C2CC2)C1` (stereo not given) | 3.478% |
| `c1ccc(-n2ccc(CNC3CCc4ncnn4C3)n2)cc1` (stereo not given) | 4.399% |

The first 9 entries again:

SMILES	percent effect
Cc1nnc2n1CCN(C(=O)CN1C(=O)C(C)Oc3ccccc31)C2 (stereo not given)	1.571%
Cc1nc(C)n(CC2CCCN2Cc2nc3ccccc3n2C)n1 (stereo not given)	-1.887%
Cc1ccnc(N2CCN(C[C@]3(O)CCCN4CCCC[C@@H]43)CC2)c1	1.02%
O=C(c1ccco1)N1CC[C@@H]2O[C@@H](COCC3CCOCC3)CC[C@@H]21	2.941%
CC(C)(C)Cc1noc2ncc(C(=O)N3CCSCC3)cc12	4.545%
Cn1cc(C(=O)CC2CCCN2C(=O)c2ccc(Cl)cn2)cn1 (stereo not given)	-3.012%
O=C(COc1ccccc1)N1CCC[C@]2(C[C@H](OCC3CC3)CO2)C1	1.087%
Cc1nc(N(C)Cc2cccc(O)c2)nc2cc(S(C)(=O)=O)ccc12	13.16%
O=C(c1ccc(F)cc1)N1CCN2C[C@H](Oc3cccnc3)C[C@H]2C1	7.463%